PubChem BioAssay AID1259254, NCATS – 2017
In all, the deposit lists about 59,000 reagents; below is a part drawn at random. About 1,550 of them (2.6%) were called active. 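G2 share is only a proxy for re-replication; each gene was hit by three separate siRNAs, and active genes were retested.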 The raw values are shown without normalisation. Reagents against one gene are numbered here. The record does not give: the amount of reagent.

Test: 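Gene knock-downs that lead to re-replication, shown by excess G2 DNA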 (primary screen)
System: human HCT116 colorectal cancer cells
Knock-down reagent: single siRNA against human genes
Timing: 3 days
Measurement: 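Nuclei stained with Hoechst and imaged; cell-cycle phase assigned by DNA content; G2 share scaled per plate, non-targeting siRNA 0%, GMNN siRNA 100%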
Direction: G2 robust z-score and G2 cells, % of GMNN control: higher = more G2 cells, more excess DNA replication; raw share of cells in G2: higher = larger share of cells with G2 DNA content
Call rule: 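An siRNA counts as active if its G2 robust z-score lies at least 5 MADs above the screen median; here such calls match roughly 38% of GMNN control or more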

gene	reagent no.	G2 robust z-score	G2 cells, % of GMNN control	raw share of cells in G2 (%)	outcome
KRT14 (keratin 14)	1	-0.229	1.35	5.54	inactive
KRT14 (keratin 14)	2	-0.495	-0.518	5.49	inactive
KRT14 (keratin 14)	3	-0.113	2.17	5	inactive
CHRNA10 (cholinergic receptor nicotinic alpha 10 subunit)	1	-0.819	-2.8	3.28	inactive
CHRNA10 (cholinergic receptor nicotinic alpha 10 subunit)	2	0.947	9.63	8.79	inactive
CHRNA10 (cholinergic receptor nicotinic alpha 10 subunit)	3	2.46	20.3	11.6	inactive
TP53I13 (tumor protein p53 inducible protein 13)	1	4.23	32.7	16.9	inactive
TP53I13 (tumor protein p53 inducible protein 13)	2	0.164	4.12	7.59	inactive
TP53I13 (tumor protein p53 inducible protein 13)	3	0.963	9.75	9.15	inactive
FEM1C (fem-1 homolog C)	1	-1.05	-4.45	2.59	inactive
FEM1C (fem-1 homolog C)	2	-0.734	-2.19	3.41	inactive
FEM1C (fem-1 homolog C)	3	-0.308	0.802	3.28	inactive
N4BP2 (NEDD4 binding protein 2)	1	-0.332	0.632	4.77	inactive
N4BP2 (NEDD4 binding protein 2)	2	-0.836	-2.92	2.93	inactive
N4BP2 (NEDD4 binding protein 2)	3	0.291	5.01	4.74	inactive
OFCC1 (orofacial cleft 1 candidate 1 (pseudogene))	1	-1.08	-4.61	1.96	inactive
OFCC1 (orofacial cleft 1 candidate 1 (pseudogene))	2	-0.889	-3.29	1.77	inactive
OFCC1 (orofacial cleft 1 candidate 1 (pseudogene))	3	-0.424	-0.0181	3.26	inactive
ST7 (suppression of tumorigenicity 7)	1	-0.244	1.25	5.69	inactive
ST7 (suppression of tumorigenicity 7)	2	0.947	9.63	7.71	inactive
ST7 (suppression of tumorigenicity 7)	3	0.398	5.77	5.39	inactive
RAB14 (RAB14, member RAS oncogene family)	1	-0.908	-3.42	4.4	inactive
RAB14 (RAB14, member RAS oncogene family)	2	0.0964	3.65	5.2	inactive
RAB14 (RAB14, member RAS oncogene family)	3	1.39	12.8	8.95	inactive
RIMKLA (ribosomal modification protein rimK like family member A)	1	-0.601	-1.26	3.18	inactive
RIMKLA (ribosomal modification protein rimK like family member A)	2	-0.291	0.918	3.4	inactive
RIMKLA (ribosomal modification protein rimK like family member A)	3	1.26	11.9	6.87	inactive
STMN3 (stathmin 3)	1	-0.826	-2.85	2.36	inactive
STMN3 (stathmin 3)	2	3.55	28	14.5	inactive
STMN3 (stathmin 3)	3	0.485	6.38	6.96	inactive
